Protein sequences, listed by entry. Tags and fused reporters are not part of them.
UniProt P53350, whole entry, looked up: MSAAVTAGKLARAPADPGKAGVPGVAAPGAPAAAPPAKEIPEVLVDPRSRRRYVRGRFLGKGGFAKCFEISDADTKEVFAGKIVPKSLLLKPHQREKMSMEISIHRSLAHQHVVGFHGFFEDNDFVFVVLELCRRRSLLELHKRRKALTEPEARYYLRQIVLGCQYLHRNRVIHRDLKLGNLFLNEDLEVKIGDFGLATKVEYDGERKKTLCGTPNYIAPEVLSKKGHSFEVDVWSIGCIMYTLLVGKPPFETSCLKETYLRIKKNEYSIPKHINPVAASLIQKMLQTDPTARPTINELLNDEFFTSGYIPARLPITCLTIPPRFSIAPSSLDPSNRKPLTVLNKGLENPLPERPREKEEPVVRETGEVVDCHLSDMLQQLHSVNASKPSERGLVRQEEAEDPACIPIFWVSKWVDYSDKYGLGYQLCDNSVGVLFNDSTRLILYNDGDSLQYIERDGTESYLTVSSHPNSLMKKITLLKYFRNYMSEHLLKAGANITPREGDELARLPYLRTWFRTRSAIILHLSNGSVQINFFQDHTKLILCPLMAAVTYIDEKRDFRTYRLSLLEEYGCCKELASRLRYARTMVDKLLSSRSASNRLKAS

Hit rate of the full screen: of about 360,000 compounds, about 10,000 (2.8%) were called active. The shares of active, inactive and inconclusive entries below differ from those in the screen. Calls follow the shape of the dose curve; as a rule, active = well fitted inhibition curve with a large enough effect; inconclusive = small, poorly fitted or top-dose-only effect; inactive = flat fitted curve, though single readings scatter. Potencies of inconclusive entries are doubtful fits and often do not repeat.
What follows are molecules tested against Serine/threonine-protein kinase PLK1 (Homo sapiens) (UniProt P53350) (assay: qHTS for Inhibitors of PLK1-PDB (polo-like kinase 1 - polo-box domain): Primary Screen). Conditions: Plk1 PBD binding of FITC phosphopeptide, fluorescence polarization.
For `COC(=O)c1cc(NC(=O)c2cc(C)oc2C)cc(C(=O)OC)c1`, the Potency was inconclusive: 26.7 µM [inhibitor, partial curve]. `CCn1c(SCC(=O)NC(=O)NC(C)(C)C)nc2ccccc21` was tested, and the Potency was active: 9.47 µM. With `CC1CC1C(=O)Nc1nc(-c2ccccn2)cs1` (stereo not given) the Potency was inconclusive: 37.7 µM [inhibitor, single point]. In the case of `O=C1N[C@@H](c2ccccc2)COC(=O)[C@@H](Cc2ccc(F)cc2)CC/C=C/C[C@@H]1CC(=O)N(CCO)Cc1ccccc1`, the max response, negative = inhibition is reported as inactive: 3.71%. `COc1ccc(/C=C2/C(=O)N(c3cccc(F)c3)N=C2C)c(OC)c1` was tested, and the Potency was inconclusive: 4.74 µM [inhibitor, full curve]. `O=C1CC(Sc2ncccc2C(=O)O)C(=O)N1` (stereo not given) was tested, and the max response, negative = inhibition was inactive: -0.0365%. With `CCOC(=O)[C@]12CCCC=C1N(Cc1cccc3ccccc13)C(=O)[C@H](CC(=O)NCCCCc1ccccc1)C2` the max response, negative = inhibition was inactive: 2.24%. In the case of `Nc1ccc2c(c1)-c1ccccc1S(=O)(=O)N2`, the max response, negative = inhibition is reported as inactive: -9.18%. In the case of `COc1cccc(/C=C2\SC(N3CCCC(C)C3)=NC2=O)c1OC` (stereo not given), the Potency is reported as inconclusive: 29.9 µM [inhibitor, single point]. With `CC(CC(=O)Nc1ncc([N+](=O)[O-])s1)c1ccccc1` (stereo not given) the Potency was inconclusive: 23.8 µM [inhibitor, partial curve]. For `COc1ccc(NC(=S)NNC(=S)Nc2cccc(C(F)(F)F)c2)cc1`, the Potency was inconclusive: 23.8 µM [inhibitor, partial curve]. With `COc1ccccc1C1CCN(Cc2ccc3ccccc3c2)CC1` the max response, negative = inhibition was inactive: 2.64%. In the case of `O=C(Nc1nc2ccc(S(=O)(=O)N3CCCC3)cc2s1)C1CCCCC1`, the Potency is reported as inconclusive: 16.8 µM [inhibitor, partial curve]. For `Cc1cc(O)c(C(C)C)cc1N=C1CSC(=O)N1`, the Potency was inconclusive: 29.9 µM [inhibitor, single point]. In the case of `Cc1ccc(C)c(NC(=S)NNc2ccc(F)cc2F)c1`, the Potency is reported as inconclusive: 26.7 µM [inhibitor, single point]. `O=C1C(=O)c2c(C(=O)c3ccccc3)coc2-c2ccccc21` was tested, and the Potency was inconclusive: 2.99 µM [inhibitor, full curve]. For `O=C(N/N=C/c1cc(Br)c(O)c([N+](=O)[O-])c1)C(O)(c1ccccc1)c1ccccc1`, the Potency was inconclusive: 26.7 µM [inhibitor, single point]. In the case of `Cc1cc(C(=O)Nc2ccccc2C(=O)O)ccc1NC(=O)COc1ccccc1Cl`, the Potency is reported as inconclusive: 37.7 µM [inhibitor, single point]. In the case of `Cc1nn(Cc2ccccc2Cl)c(C)c1NC(=O)/C=C/c1cnn(C)c1`, the max response, negative = inhibition is reported as inactive: -4.77%. `Cc1cccc(NC(=O)c2ccc3nccnc3c2)c1C` was tested, and the Potency was inconclusive: 21.2 µM [inhibitor, partial curve]. For `O=S(=O)(Nc1nc2c(s1)CCCC2)c1ccc2ccccc2c1`, the Potency was inconclusive: 26.7 µM [inhibitor, single point]. In the case of `O=c1cc(-c2ccc(O)c(-c3c(O)cc(O)c4c(=O)cc(-c5ccc(O)cc5)oc34)c2)oc2cc(O)cc(O)c12`, the Potency is reported as inconclusive: 21.2 µM [inhibitor, partial curve]. For `CCCCCCCCN1C(=O)[C@H](CC(=O)N2CCC(c3ccccc3)CC2)C[C@@]2(C(=O)OC)CC(C)(C)CC=C12`, the max response, negative = inhibition was inactive: -8.14%. `CCc1ccc2[nH]c(C(=O)Nc3ccc(C)c(F)c3)cc2c1` was tested, and the Potency was inconclusive: 26.7 µM [inhibitor, partial curve]. For `CS(=O)(=O)c1cccc(C(=O)Nc2nnc(C3=COCCO3)o2)c1`, the Potency was inconclusive: 11.9 µM [inhibitor, partial curve]. For `CC(C(=O)NC1C=CS(=O)(=O)C1)N1C(=O)/C(=C/c2cccc(Cl)c2)SC1=S` (stereo not given), the Potency was inconclusive: 21.2 µM [inhibitor, partial curve]. In the case of `COc1ccccc1-c1nc(S(=O)(=O)c2ccc(Cl)cc2)c(N(C)C)o1`, the Potency is reported as inconclusive: 21.2 µM [inhibitor, partial curve]. In the case of `Cc1ccc(CNCCNCCO)s1`, the max response, negative = inhibition is reported as inactive: -18.3%. With `CC1=CC(C)(C)N2C(=O)C(=O)c3cc(OC(=O)c4ccco4)cc1c32` the Potency was active: 26.7 µM. For `Cn1cccc1Cc1nnc(SCC(=O)Nc2ccc3c(c2)OCO3)n1CCc1ccccc1`, the max response, negative = inhibition was inconclusive: -30.6% [inhibitor]. For `Cc1oc2cc([N+](=O)[O-])c(O)c([N+](=O)[O-])c2c1C(=O)c1ccc(Cl)cc1`, the Potency was inconclusive: 26.7 µM [inhibitor, single point]. `O=C1OCCC1Sc1nc2ccccc2s1` (stereo not given) was tested, and the Potency was inconclusive: 29.9 µM [inhibitor, partial curve]. In the case of `COc1cnn(Cc2ccccc2)c(=O)c1SCc1ccccc1`, the max response, negative = inhibition is reported as inconclusive: -31.6% [inhibitor]. For `O=C(NCc1ccccc1)C1c2ccccc2OCC(=O)N1CCCN1CCOCC1` (stereo not given), the max response, negative = inhibition was inactive: -0.492%. In the case of `CCCCN(C(=S)Nc1ccc(F)cc1)c1c(N)n(CCC)c(=O)[nH]c1=O`, the Potency is reported as inconclusive: 37.7 µM [inhibitor, single point]. In the case of `O=C(CSC1=NCCS1)NC(c1ccccc1)c1ccccc1`, the max response, negative = inhibition is reported as inconclusive: -35.1% [inhibitor]. `C=CCOc1c(Br)cc(/C=N/Nc2ccc(C(=O)O)cc2)cc1OCC` was tested, and the Potency was inconclusive: 26.7 µM [inhibitor, partial curve]. For `c1ccc(-c2nc3ccccc3nc2N2CCOCC2)cc1`, the max response, negative = inhibition was inactive: -4.13%. `COc1cccc(C(=O)Nc2cnc(NC(=O)c3ccco3)cc2C)c1` was tested, and the Potency was inconclusive: 26.7 µM [inhibitor, single point]. With `O=C(NCCc1cccc(Cl)c1)c1cccs1` the max response, negative = inhibition was inactive: -9.66%. With `Cc1ccc(CNCC(=O)Nc2ccc(N3CCOCC3)cc2)cc1` the max response, negative = inhibition was inactive: -0.536%. In the case of `CC(=O)c1sc(NC(=O)C2(F)C(F)(F)C(F)(F)C(F)(F)C(F)(F)C2(F)F)nc1C`, the Potency is reported as inconclusive: 37.7 µM [inhibitor, single point]. `Cc1nc(NS(=O)(=O)c2ccc(Cl)s2)c2c3c(sc2n1)CCCC3` was tested, and the Potency was inconclusive: 26.7 µM [inhibitor, single point]. `CSc1nc(N2CCOCC2)c2c3c(sc2n1)CCC3` was tested, and the max response, negative = inhibition was inactive: -6.96%. In the case of `Cc1ccc2nc(NC(=O)CSCC(=O)OCC(=O)c3ccc(Br)cc3)sc2c1`, the max response, negative = inhibition is reported as inactive: -25.7%. For `Cc1cccc(NC(=S)N(Cc2ccc(Cl)cc2)Cc2ccc(C(=O)O)cc2)c1`, the max response, negative = inhibition was inactive: -11.2%. With `Cc1c(C(=O)N2CCc3ccccc32)oc2c1C(=O)CC(C)(C)C2` the Potency was inconclusive: 31.6 µM [inhibitor, partial curve]. `Cc1nn(CC(=O)NCCCN2CCCC2=O)c(C)c1[N+](=O)[O-]` was tested, and the max response, negative = inhibition was inactive: -4.72%. In the case of `COCCNC(=S)N(C)[C@H]1C[C@H]2c3cc(-c4ccccc4)ccc3CCN2C(=O)[C@H]1[C@H](C)O`, the max response, negative = inhibition is reported as inactive: -15.8%. For `CCN(C(=O)CSc1nc2cc(C(=O)O)ccc2c(=O)n1-c1ccccc1F)C1CCS(=O)(=O)C1` (stereo not given), the max response, negative = inhibition was inactive: 0.888%. For `O=C(Oc1cccnc1)c1ccc([N+](=O)[O-])cc1Cl`, the Potency was inconclusive: 21.2 µM [inhibitor, partial curve]. In the case of `CN(C)C/C(Cl)=C(\Cl)c1ccccc1`, the Potency is reported as inconclusive: 26.7 µM [inhibitor, partial curve]. For `COc1ccccc1CCNC(=O)CSc1nc(-c2ccco2)cc(C(F)(F)F)n1`, the max response, negative = inhibition was inactive: -4.2%. For `O=[N+]([O-])c1ccccc1/C=N/n1c(COc2ccccc2)n[nH]c1=S`, the Potency was inconclusive: 26.7 µM [inhibitor, single point]. `Cc1cc(N2C(=O)C(O)=C(C(=O)c3cc4ccccc4o3)C2c2cccs2)no1` (stereo not given) was tested, and the Potency was inconclusive: 29.9 µM [inhibitor, single point]. With `Cc1ccc(NC(=O)C2=NNC(=O)CC2)cc1S(=O)(=O)Nc1ccc(SC(F)F)cc1` the Potency was inconclusive: 23.8 µM [inhibitor, partial curve]. With `COCC(C)n1c(C)cc(C(=O)CSc2nnc(N)s2)c1C` (stereo not given) the max response, negative = inhibition was inactive: -13.3%. For `CN1C(=O)c2oc3ccccc3c(=O)c2C1c1cccnc1` (stereo not given), the Potency was inconclusive: 33.6 µM [inhibitor, partial curve]. With `CC1(C)CC(NNCCC#N)=CC(=[N+]2CCCC2)C1` the Potency was active: 23.8 µM. In the case of `O=c1oc(-c2ccccc2Br)nc2ccccc12`, the max response, negative = inhibition is reported as inconclusive: -35.6% [inhibitor]. With `[O-]/C(=C(\C(=S)Nc1ccccc1F)[n+]1ccccc1)c1ccc(OC(F)F)cc1` the Potency was inconclusive: 16.8 µM [inhibitor, partial curve]. For `CC(=O)N1c2ccc(S(=O)(=O)NCC3CCC(C(=O)NCc4ccco4)CC3)cc2CC1C` (stereo not given), the max response, negative = inhibition was inactive: -1.78%. In the case of `Cc1ccc(/C(=N\S(=O)(=O)c2ccc(Br)cc2)Nc2ccccc2C)cc1`, the max response, negative = inhibition is reported as inactive: -8.61%. `FC(F)(F)c1nnc2n1N=C(c1ccccc1)CS2` was tested, and the max response, negative = inhibition was inactive: 3.96%. With `O=C(NC(=S)N1CCN(C/C=C/c2ccccc2)CC1)c1ccc(Cl)nc1` the Potency was inconclusive: 26.7 µM [inhibitor, single point]. In the case of `CCN(CC)c1ccc(NC(=S)NC(=O)c2ccco2)cc1`, the Potency is reported as active: 21.2 µM. With `COc1cccc(/C=N/NC(=O)c2c(C)nc3ccc(Br)cn23)c1O` the Potency was inconclusive: 29.9 µM [inhibitor, partial curve]. For `COC(=O)c1c(NC(=O)/C=C/C(=O)O)sc(C)c1-c1ccc(C(C)C)cc1`, the Potency was active: 37.7 µM. In the case of `CC(C)(C)OC(=O)NCCc1n[nH]c(=S)o1`, the max response, negative = inhibition is reported as inactive: -2.95%. For `CCOC(=O)C1CCN(C(=O)CCc2nnc3ccc(N4CCC(C)CC4)nn23)CC1`, the Potency was active: 23.8 µM.

From PubChem BioAssay AID720504 (National Center for Advancing Translational Sciences (NCATS), 2013)
% is scaled to controls: 0 for no effect and ±100 for the full control effect; potency is read from the fitted curve at half-maximal effect.
Also: nearly all actives have a fitted effect of over 65% in size.
For max response, negative = inhibition in this document: series mostly up to about 57 µM.
